Assay results as given in publication PMC6803371.
No constants are given. Whether binding was seen depends on the method and setting. Binding seen in cells or lysates may run through a third protein. A result given as binding can be weak or reduced; the word gives no strength.

Protein sequences, listed by entry. Tags and fused reporters are not part of them.
UniProt Q62318: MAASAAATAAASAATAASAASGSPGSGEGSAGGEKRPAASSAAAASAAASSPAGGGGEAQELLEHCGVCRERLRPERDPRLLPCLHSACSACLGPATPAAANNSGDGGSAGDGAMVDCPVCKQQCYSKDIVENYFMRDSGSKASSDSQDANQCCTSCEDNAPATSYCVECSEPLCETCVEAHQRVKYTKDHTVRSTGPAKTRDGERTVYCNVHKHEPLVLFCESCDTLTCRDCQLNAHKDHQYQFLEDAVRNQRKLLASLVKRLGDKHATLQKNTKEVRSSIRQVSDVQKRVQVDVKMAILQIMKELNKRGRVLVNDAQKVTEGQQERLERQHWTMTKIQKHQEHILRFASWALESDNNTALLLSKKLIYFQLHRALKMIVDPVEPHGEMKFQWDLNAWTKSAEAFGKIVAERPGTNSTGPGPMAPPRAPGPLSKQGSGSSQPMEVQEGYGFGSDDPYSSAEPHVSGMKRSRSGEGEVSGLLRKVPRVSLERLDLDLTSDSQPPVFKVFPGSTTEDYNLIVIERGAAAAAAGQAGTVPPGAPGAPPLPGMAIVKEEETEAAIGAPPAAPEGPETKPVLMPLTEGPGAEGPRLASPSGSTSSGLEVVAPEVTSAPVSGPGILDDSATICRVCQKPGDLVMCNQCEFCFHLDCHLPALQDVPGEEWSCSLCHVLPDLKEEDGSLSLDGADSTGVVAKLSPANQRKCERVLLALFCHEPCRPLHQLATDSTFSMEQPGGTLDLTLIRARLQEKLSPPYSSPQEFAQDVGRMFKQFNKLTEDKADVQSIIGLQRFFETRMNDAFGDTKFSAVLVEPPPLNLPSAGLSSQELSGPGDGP

Target: TRIM28 (mouse (endogenous in mESCs)) (UniProt Q62318)
Test: co-IP; RIPA lysates of mESCs overexpressing FLAG-ZFP708 variants; immunoprecipitated with anti-Trim28 antibody, western blot with anti-Flag antibody; empty vector as negative control

binding: binds
Substance: FLAG-tagged full-length ZFP708 (from UniProt F8VPP0)
